Results deposited as PubChem BioAssay AID1053208 (Peter MacCallum Cancer Centre, 2014)

Aim: 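Synthetic lethal interactions between gene loss and doxorubicin in osteosarcoma cells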 (primary screen)
System: mouse osteosarcoma cells, early-passage culture from an engineered mouse model of fibroblastic bone tumour
Reagents: siRNA pool against mouse genes, 40 nM
Timing: about 120 h (48 h before drug, then 72 h with drug)
Challenge: doxorubicin 100 nM for 72 h, roughly 30-40% inhibitory dose
Read-out: 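Luminescent ATP signal taken as viability with or without 100 nM doxorubicin for 72 h; mean of two wells set against non-targeting siRNA and turned into robust z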
Reading the numbers: viability z-score with doxorubicin and doxorubicin viability vs non-targeting: higher = more viable cells under doxorubicin; viability z-score without drug: higher = more viable cells with knock-down alone; z-score of drug to no-drug ratio: higher = less drug sensitisation by knock-down
Call rule: 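Called active if knock-down leaves viability unchanged without drug (z within -2 to 2) but lowers it with doxorubicin (z at or under -2)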
In all, the deposit lists about 17,000 reagents; shown is an unselected part. Of all reagents, 788 (4.7%) were called active. 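Calls rest on z-score classes alone; an extra cut-off of viability at most 70% of control was not applied to them.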

| target | combined z-score class | viability z-score with doxorubicin | viability z-score without drug | z-score of drug to no-drug ratio | doxorubicin viability vs non-targeting | activity call |
| --- | --- | --- | --- | --- | --- | --- |
| 2610528J11Rik | no change with or without drug | 0.11 | -0.17 | 0.34 | 0.95 | inactive |
| Mterf4 | no change with or without drug | -0.79 | 0.34 | -0.9 | 0.87 | inactive |
| Ndufs4 | no change with or without drug | -0.79 | -0.17 | -0.56 | 0.87 | inactive |
| St7 | no change with or without drug | 0.45 | -1.52 | 1.8 | 0.98 | inactive |
| Ap3m1 | no change with or without drug | 1.01 | -0.17 | 1.35 | 1.03 | inactive |
| Nup62 | low cell count with and without drug | -5.17 | -7.25 | -0.67 | 0.48 | inactive |
| Cpa6 | no change with or without drug | -0.45 | 0.34 | -0.56 | 0.9 | inactive |
| Insm2 | no change with or without drug | -0.67 | -0.51 | -0.22 | 0.88 | inactive |
| Gpr139 | no change with or without drug | 0.56 | 1.01 | 0 | 0.99 | inactive |
| Chid1 | no change with or without drug | 1.8 | 0.51 | 1.57 | 1.1 | inactive |
| Or14c45 | no change with or without drug | -1.8 | -1.85 | -0.56 | 0.78 | inactive |
| Ttc33 | no change with or without drug | 0.22 | -0.51 | 0.67 | 0.96 | inactive |
| Srrm3 | no change with or without drug | 0.67 | 0.84 | 0.22 | 1 | inactive |
| Vmn1r42 | no change with or without drug | 0.22 | 0.51 | 0 | 0.96 | inactive |
| Ankrd33b | no change with or without drug | 0.45 | 0.51 | 0.22 | 0.98 | inactive |
| Pak6 | no change with or without drug | -0.9 | -1.35 | 0.11 | 0.86 | inactive |
| Fxyd3 | no change with or without drug | -0.22 | -0.17 | 0 | 0.92 | inactive |
| Tcl1b1 | low cell count without drug only | -1.46 | -2.19 | 0.11 | 0.81 | inactive |
| Usp1 | no change with or without drug | 0.45 | 1.01 | -0.11 | 0.98 | inactive |
| Edn3 | no change with or without drug | -1.01 | -0.51 | -0.67 | 0.85 | inactive |
| Wscd2 | no change with or without drug | 0.34 | 0.51 | 0.11 | 0.97 | inactive |
| Hmgb3 | no change with or without drug | 0.9 | -0.51 | 1.46 | 1.02 | inactive |
| Or6z5 | no change with or without drug | 0.45 | 0.84 | 0 | 0.98 | inactive |
| Glce | no change with or without drug | 1.12 | 0.84 | 0.67 | 1.04 | inactive |
| Wasf2 | no change with or without drug | -0.79 | -0.67 | -0.22 | 0.87 | inactive |
| Dolk | no change with or without drug | 0.79 | 1.01 | 0.22 | 1.01 | inactive |
| Vmn1r23 | no change with or without drug | 1.8 | 0.17 | 1.91 | 1.1 | inactive |
| Gcsh | no change with or without drug | -0.11 | -0.34 | 0.22 | 0.93 | inactive |
| Aldh4a1 | no change with or without drug | 0.34 | -0.84 | 1.12 | 0.97 | inactive |
| Thsd7b | no change with or without drug | -0.67 | -0.84 | 0 | 0.88 | inactive |
| Adgrb1 | no change with or without drug | -1.01 | 1.69 | -1.91 | 0.85 | inactive |
| Nucleolin | low cell count without drug only | -1.8 | -2.19 | -0.34 | 0.78 | inactive |
| Nip7 | high cell count with doxorubicin only | 2.25 | -0.17 | 2.59 | 1.14 | inactive |
| Hmcn2 | no change with or without drug | 0.67 | 0.34 | 0.56 | 1 | inactive |
